From patent US20090196917A1, “Liposomal Formulations of Hydrophobic Lactone Drugs in the Presence of Metal Ions” (University of Kentucky Research Foundation, priority 2008, published 2009)
Read-outs that look alike come from different tables or passages of the source. The name of at least one read-out is uncertain.

CC[C@@]1(O)C(=O)OCc2c1cc1n(c2=O)Cc2c-1nc1ccc(O)cc1c2[Si](C)(C)C(C)(C)C [DB-67, silatecan 7-t-butyldimethylsilyl-10-hydroxycamptothecin]
half-life for release (liposomes prepared by the novel formulation approach (active loading), dialysis against pH 7.4 C-PBS): approximately 23 hours | half-life for release (passive loading approaches for DB-67, observed before): 3 h
